Results taken from US12691106B2, “Treating refractive disorders by targeting peroxisome proliferator-activated receptor (PPAR) signaling pathway” (Centre for Eye and Vision Research Limited, priority 2023, dated 2026).
At least one compound was matched to its structure with a doubt left.

System: lens-induced myopia (LIM) chick eyes
Assay: Lens-induced myopia (LIM) in chicks, axial length by ultrasonic A-scan
Type: in vivo
Conditions: from 200 μmol to 5 mmol dosages
Experimental: Chicks age day 7 are divided into 2 groups, lens-induced myopia (LIM) and age-matched control (CTL), randomly. Chick eyes are measured with ultrasonic A-scan and refractive index by retinoscope by a single-masked operator. A computer-controlled randomization is applied to assign either left or right eye for LIM treatment and contralateral eye served as untouch control. Baseline physiological data is acquired on day 7. Purified rosiglitazone (>99%) is purchased from manufacturer and dissolved in 100% Dimethyl sulfoxide (DMSO). A working rosiglitazone solution is prepared in the concentration of 5 mM in 2% DMSO, PBS solution prior use. The rosiglitazone (5 mM, 10 μL) is delivered by intravitreal injection in the LIM eye once a day for 3 consecutive days. A-10 D lens is applied soon after drug delivery. Chick eyes are measured again on day 10 to access the effect of rosiglitazone.
Further, the effect of rosiglitazone in lower dosages is also investigated. Briefly, chicks age day 7 are divided into 3 groups, lens-induced myopia with higher dosage (LIM with 1 mM, n=7), lens-induced myopia with lower dosage (LIM with 0.2 mM, n=7) and age-matched control (CTL, n=2), randomly. Chick eyes are measured with ultrasonic A-scan and refractive index by retinoscope by a single-masked operator. […] Chick eyes are measured again on day 10 to access the effect of rosiglitazone. […]

## CN(CCOc1ccc(CC2SC(=O)NC2=O)cc1)c1ccccn1 (stereo not shown) [rosiglitazone]
  statistical difference of axial length suppression: Statistical difference was recorded
